The values that follow come from publication PMC7819943, “Rice protein-binding microarrays: a tool to detect cis-acting elements near promoter regions in rice”.

Chains of the proteins cited; added tags and fusions are not shown.
UniProt Q0JBA9, entry or part of it: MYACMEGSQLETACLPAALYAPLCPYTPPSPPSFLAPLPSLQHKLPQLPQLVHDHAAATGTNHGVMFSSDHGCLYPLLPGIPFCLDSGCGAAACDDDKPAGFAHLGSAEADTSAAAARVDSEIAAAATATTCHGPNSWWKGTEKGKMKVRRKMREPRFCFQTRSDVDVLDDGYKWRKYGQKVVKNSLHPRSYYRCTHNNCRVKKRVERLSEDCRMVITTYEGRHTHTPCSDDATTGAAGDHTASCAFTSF

Some of the results follow.

This assay has as its target OsWRKY34 (Oryza sativa, UniProt Q0JBA9 1-250). Briefly: protein-binding microarray (RPBM); PBS, 2% BSA, 51.3 ng/ul salmon testes DNA, 50 uM zinc acetate, 200 nM TF, 25 C, 1 h; high values mean tight binding. As to conditions: protein: recombinant; tags: N-terminal polyhistidine and DsRed monomer fusion (pET32a); label: CyDye5-dUTP incorporated in the synthesized complementary strand; 3' TTTTT single-stranded linker to array surface; dsDNA, one strand shown. The method, boiled down: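 A custom Agilent array was converted to double-stranded form by primer extension with Cy5-dUTP and blocked with 2% BSA. Protein at 200 nM in PBS with 2% BSA, salmon testes DNA and 50 µM zinc acetate was applied for 1 h at 25 °C, followed by washing. The proteins were polyhistidine–DsRed N-terminal fusions of transcription factors, expressed in E. coli BL21-CodonPlus and Ni–NTA-purified. The binding signal is per-feature fluorescence intensity (arbitrary units) from an Axon 4000B scanner.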
Consider “CCATCTATATCTATCTATTACTATCTATATCTTCTTTATACGGAGTCACCTAGTGCAG”, for which the binding signal is 9130 fluorescence intensity (a.u.).
“ACCCAGTCAAACTTCTATGAGAAGCTGTCCACTGTCATCGCGGAGTCACCTAGTGCAG”: the binding signal is 8060 fluorescence intensity (a.u.).
As for “TATTACGTGTGCCGTTCATATGCAGGGAATGGGGTTTTGACGGAGTCACCTAGTGCAG”, the binding signal was 14400 fluorescence intensity (a.u.).
The value for “TGTCAAACTACAACTTACTTTCTCGTTTTCTGTTAATATACGGAGTCACCTAGTGCAG” was 9230 fluorescence intensity (a.u.); that for “TCCTTGCTTATCAACACGTACGTTGCGTTTCTTGGCAATGCGGAGTCACCTAGTGCAG” was 8020 fluorescence intensity (a.u.); that for “GAGCGCTCTTCCCGCCAAATTTGGCTCGGCCGCGCGCGCCCGGAGTCACCTAGTGCAG” was 8340 fluorescence intensity (a.u.).
“ATTCAATTTCCCCACCTACCTTCGCATCTCAACCAATCACCGGAGTCACCTAGTGCAG”: the binding signal was 9740 fluorescence intensity (a.u.).
Under “GGAGACTTGTACCAGTACTTTTACCTAACCTCACAATACCCGGAGTCACCTAGTGCAG” stands 9030 fluorescence intensity (a.u.); under “ACCCACTAATCCAGCCAAGTAATGCCGATTTTTACCCCACCGGAGTCACCTAGTGCAG”, 8310 fluorescence intensity (a.u.).
Consider “TCGCCAGTTCCTAACGCATCGTCTTGCCAGGCCTCAATATCGGAGTCACCTAGTGCAG”, for which the binding signal was 8490 fluorescence intensity (a.u.).
Regarding “TTTTTTTTTGTTATTGTGTTGCGTTTCCTCCTAGTAAACACGGAGTCACCTAGTGCAG”, the binding signal is 10100 fluorescence intensity (a.u.).
“GCCCTTTCTGCAGATCCGAACATAACTACTGCTATCCTTACGGAGTCACCTAGTGCAG”: the binding signal was 8680 fluorescence intensity (a.u.).
As to “CCCCATCCGTCCCACTGACATCCCGGCCCCACCATACCGTCGGAGTCACCTAGTGCAG”, the binding signal was 8320 fluorescence intensity (a.u.).
The value for “TGCATTACTGCGAAGGTCATTTTTGTTTTGGATCATAGCACGGAGTCACCTAGTGCAG” was 9630 fluorescence intensity (a.u.); that for “ACTTTTCTTCTGTAACTCCACAGCTACTTTACTCAACATCCGGAGTCACCTAGTGCAG” was 8900 fluorescence intensity (a.u.); that for “GTCCCACCTTAATCATGGCCCACTGGTAAGTCTCTTAACGCGGAGTCACCTAGTGCAG” was 8350 fluorescence intensity (a.u.).
“TTGTAACTCTTTTTCTTGTTGAATATAATGTTGTTTGTTTCGGAGTCACCTAGTGCAG”: the binding signal was 9490 fluorescence intensity (a.u.).
Under “ATCTCTCCTCTCTATCTCTTTCTCATCTCCACCTCACCTCCGGAGTCACCTAGTGCAG” stands 10100 fluorescence intensity (a.u.); under “TAGGTGTGTATGTTTGTGTTCATAGGCCTCGCTTATGGTGCGGAGTCACCTAGTGCAG”, 8760 fluorescence intensity (a.u.); under “GACAATTCAAATCTCCTAGCGCTCTACTACTTCTAGCACACGGAGTCACCTAGTGCAG”, 8900 fluorescence intensity (a.u.).
As to “ACTAGAATCTCACACATGACACATCCATCACATCACACACCGGAGTCACCTAGTGCAG”, the binding signal was 9730 fluorescence intensity (a.u.).
Take “CACACGCATTACTTAGGCCATGCTTCTTTCAGCTTAATATCGGAGTCACCTAGTGCAG”: the binding signal was 10500 fluorescence intensity (a.u.).
With “GGTAAGCATCATACTGTTCGTTGTTGACTCAATGATCATCCGGAGTCACCTAGTGCAG”, the binding signal was 9470 fluorescence intensity (a.u.).
As to “GCATAACTGTGGTCTCCAACTTGCGACATGCAACTTTGAGCGGAGTCACCTAGTGCAG”, the binding signal was 8090 fluorescence intensity (a.u.).
As to “AGTCGGGGCTGCTTGTTGATGTGTTTATATACCGCGCGGCCGGAGTCACCTAGTGCAG”, the binding signal was 10300 fluorescence intensity (a.u.).
As to “GTGCAACAGTTTAATTTTTGGCGTTTTTTTTATCTTTCTGCGGAGTCACCTAGTGCAG”, the binding signal was 9320 fluorescence intensity (a.u.).
As for “TAGAGAAGAGACGAGAGGTTGGGGTGGGCGGCCGCGGGAGCGGAGTCACCTAGTGCAG”, the binding signal was 9270 fluorescence intensity (a.u.).
As for “AACATTCTTTGCAACAAATCAGCCACATATTATAGAAACCCGGAGTCACCTAGTGCAG”, the binding signal is 8100 fluorescence intensity (a.u.).
In the case of “ATGCTAATATTGTTTTCCTTTTCAGGAGTGTTCTCATACTCGGAGTCACCTAGTGCAG”, the binding signal was 8270 fluorescence intensity (a.u.).
On to “GGTCCACAGAGAAAATGGAATGGTGCGGGGTGGTGTTCTGCGGAGTCACCTAGTGCAG”, for which the binding signal was 8160 fluorescence intensity (a.u.).
In the case of “TATTTGTTTTTTTCCCACATTTCCACCCAACCCATCCATCCGGAGTCACCTAGTGCAG”, the binding signal is 9870 fluorescence intensity (a.u.).
For the sequence “GTCGGAGTGGTTTGCCGTAGTTGTCTCTCGTTTTCGCTGTCGGAGTCACCTAGTGCAG”, the binding signal was 8680 fluorescence intensity (a.u.).
Turning to “TCCGTTCGCTATTTGGGTTGGTTGGGCTATAGAAAAGCCCCGGAGTCACCTAGTGCAG”, the binding signal is 8520 fluorescence intensity (a.u.).
Regarding “TGTATCTTCAGATTCTCTACTGGTCTTCTAAGTTTCATTCCGGAGTCACCTAGTGCAG”, the binding signal is 8260 fluorescence intensity (a.u.).
Turning to “CAGCACCGTCATCGTCGTCGTTGTCGCGCGTCACCGTGAACGGAGTCACCTAGTGCAG”, the binding signal is 9390 fluorescence intensity (a.u.).
The value for “TCTCTCTCTCTCGACAAATCTCGTTCCCGGCTTCGTTTCCCGGAGTCACCTAGTGCAG” was 10100 fluorescence intensity (a.u.).
Turning to “CATCCACTGCAGTAACGGGAACGCGGACCTCGCCATCGTTCGGAGTCACCTAGTGCAG”, the binding signal is 8640 fluorescence intensity (a.u.).
Consider “CCATCCGTGCGCCGTCCTTTTGCCGCCCGCGCGGGCCCCACGGAGTCACCTAGTGCAG”, for which the binding signal is 11000 fluorescence intensity (a.u.).
In the case of “TTTTTTTTCTGTTAGTACTGTTTTTGGTCCAAACATCTTTCGGAGTCACCTAGTGCAG”, the binding signal was 8180 fluorescence intensity (a.u.).
In the case of “ACTCTTTGGGCGTCTCCAGCTTCTAGTTACTTCGTCTCCTCGGAGTCACCTAGTGCAG”, the binding signal was 9370 fluorescence intensity (a.u.).
With “TCTGGAGTTTGTGTTCTGTTGCTGCCGATGCCTTTCCTCACGGAGTCACCTAGTGCAG”, the binding signal is 12700 fluorescence intensity (a.u.).
On to “AACAGTTTAACTTTGACCAAAGTCAAAACATCTTATAACCCGGAGTCACCTAGTGCAG”, for which the binding signal was 9750 fluorescence intensity (a.u.).
Take “CTCTCCTCTTTCTTTTTTCCCTCTAGTGATAGGGCCATACCGGAGTCACCTAGTGCAG”: the binding signal is 8320 fluorescence intensity (a.u.).
Take “CTCGGGTGGGTTGCGGTTGAGCCACTTGGTGTGCCATCAACGGAGTCACCTAGTGCAG”: the binding signal was 10600 fluorescence intensity (a.u.).
Under “TTTCTACTCACTCCGTTTTTCTCAATGTAAATTATTCTAGCGGAGTCACCTAGTGCAG” stands 10300 fluorescence intensity (a.u.).
Consider “GGTACGTGTTCAATATGTTGCGCATATTTGATCTTTTCATCGGAGTCACCTAGTGCAG”, for which the binding signal is 9920 fluorescence intensity (a.u.).
Take “ACCCCGCCTCCGCCGCATTCAATCCATCGCCGCAACGACACGGAGTCACCTAGTGCAG”: the binding signal was 10100 fluorescence intensity (a.u.).
Under “CTTCACATGAGTATTTCTTGACCATGTATCAACATTTGTACGGAGTCACCTAGTGCAG” stands 9620 fluorescence intensity (a.u.); under “AATTCGTTTAATATTTCGGACTTCATATTTCTGTTACTGCCGGAGTCACCTAGTGCAG”, 8500 fluorescence intensity (a.u.); under “CAGACATCAAATCATCTGTTTGTTATCCCTGGTGCTGTTTCGGAGTCACCTAGTGCAG”, 8650 fluorescence intensity (a.u.).
As to “GAACCCTTGAATTGCCCTGTTTTCCCATTGCTATGCTTTTCGGAGTCACCTAGTGCAG”, the binding signal is 10200 fluorescence intensity (a.u.).
The value for “GTGTGAAATTGACATGTGGGTCCCATGGGTATTATTATTACGGAGTCACCTAGTGCAG” was 9290 fluorescence intensity (a.u.).
The value for “TTATCTTAACGTGGCCCAACTCCTGCTCTTCTTCCTTTTCCGGAGTCACCTAGTGCAG” was 8040 fluorescence intensity (a.u.); that for “ATCCCAAAATAATGTGTTCGGGTGGGCGGGCGGGAAATATCGGAGTCACCTAGTGCAG” was 23000 fluorescence intensity (a.u.).
